B1: Kap-α3 (an importin-α homolog) (protein, UniProt Q9V455 1-514)
chain: MTSMEQNRLQNFKNKGKDQDEMRRRRNEVTVELRKNKREETILKRRNVPNLDSNTDEEEQLSSSIDLKKLAKAAADATKPEQQLAAVQAARKLLSSDKNPPINDLIQSDILPILVECLKQHNHTMLQFEAAWALTNIASGTSAQTNEVVAAGAVPLFLQLLNSPAPNVCEQAVWALGNIIGDGPLLRDFVIKHGVVQPLLSFIKPDIPITFLRNVTWVIVNLCRNKDPAPPTATIHEILPALNVLIHHTDTNILVDTVWAISYLTDGGNDQIQMVIESGVVPKLIPLLGNSEVKVQTAALRAVGNIVTGSDEQTQVVLNYDALSYFPGLLSHPKEKIRKEAVWFLSNITAGNQSQVQAVINVGLLPKIIENLSKGEFQTQKEAAWAISNLTISGNREQVFTLIKEGVIPPFCDLLSCQDTQVINVVLDGLNNMLKVADSHVEAVANCIEECEGLAKIERLQSHENVEIYKLAYEIIDQYFTDEGEQTNMAPTSDGAQYNFDPHADRLTMNSFNF
B2: Rcc1 (the Ran guanine nucleotide exchange factor) (protein, UniProt P25171 1-547)
chain: MPRRKALTNNNNAGEAEQQPPKAKRARIAFHLELPKRRTVLGNVLVCGNGDVGQLGLGEDILERKRLSPVAGIPDAVDISAGGMHNLVLTKSGDIYSFGCNDEGALGRDTSEDGSESKPDLIDLPGKALCISAGDSHSACLLEDGRVFAWGSFRDSHGNMGLTIDGNKRTPIDLMEGTVCCSIASGADHLVILTTAGKVFTVGCAEQGQLGRLSERSISGEGRRGKRDLLRPTQLIITRAKPFEAIWATNYCTFMRESQTQVIWATGLNNFKQLAHETKGKEFALTPIKTELKDIRHIAGGQHHTVILTTDLKCSVVGRPEYGRLGLGDVKDVVEKPTIVKKLTEKIVSVGCGEVCSYAVTIDGKLYSWGSGVNNQLGVGDGDDELEPIVVVSKNTQGKHMLLASGGGQHAIFLVKADKQDQKENVPVKVSGSSSISKKDKTPPQDNVDKEAENVDKQEQKENLPAKASTSSKKNKTPPQDNADKEAENVDKQEQKENLPAKASTSSKKIKTPPQDDAAEEVEEESAQEPTPKKAKKPAAKRGGKKT

The chains behind the UniProt entries cited, without tags or fusion partners.
UniProt A1ZAW0: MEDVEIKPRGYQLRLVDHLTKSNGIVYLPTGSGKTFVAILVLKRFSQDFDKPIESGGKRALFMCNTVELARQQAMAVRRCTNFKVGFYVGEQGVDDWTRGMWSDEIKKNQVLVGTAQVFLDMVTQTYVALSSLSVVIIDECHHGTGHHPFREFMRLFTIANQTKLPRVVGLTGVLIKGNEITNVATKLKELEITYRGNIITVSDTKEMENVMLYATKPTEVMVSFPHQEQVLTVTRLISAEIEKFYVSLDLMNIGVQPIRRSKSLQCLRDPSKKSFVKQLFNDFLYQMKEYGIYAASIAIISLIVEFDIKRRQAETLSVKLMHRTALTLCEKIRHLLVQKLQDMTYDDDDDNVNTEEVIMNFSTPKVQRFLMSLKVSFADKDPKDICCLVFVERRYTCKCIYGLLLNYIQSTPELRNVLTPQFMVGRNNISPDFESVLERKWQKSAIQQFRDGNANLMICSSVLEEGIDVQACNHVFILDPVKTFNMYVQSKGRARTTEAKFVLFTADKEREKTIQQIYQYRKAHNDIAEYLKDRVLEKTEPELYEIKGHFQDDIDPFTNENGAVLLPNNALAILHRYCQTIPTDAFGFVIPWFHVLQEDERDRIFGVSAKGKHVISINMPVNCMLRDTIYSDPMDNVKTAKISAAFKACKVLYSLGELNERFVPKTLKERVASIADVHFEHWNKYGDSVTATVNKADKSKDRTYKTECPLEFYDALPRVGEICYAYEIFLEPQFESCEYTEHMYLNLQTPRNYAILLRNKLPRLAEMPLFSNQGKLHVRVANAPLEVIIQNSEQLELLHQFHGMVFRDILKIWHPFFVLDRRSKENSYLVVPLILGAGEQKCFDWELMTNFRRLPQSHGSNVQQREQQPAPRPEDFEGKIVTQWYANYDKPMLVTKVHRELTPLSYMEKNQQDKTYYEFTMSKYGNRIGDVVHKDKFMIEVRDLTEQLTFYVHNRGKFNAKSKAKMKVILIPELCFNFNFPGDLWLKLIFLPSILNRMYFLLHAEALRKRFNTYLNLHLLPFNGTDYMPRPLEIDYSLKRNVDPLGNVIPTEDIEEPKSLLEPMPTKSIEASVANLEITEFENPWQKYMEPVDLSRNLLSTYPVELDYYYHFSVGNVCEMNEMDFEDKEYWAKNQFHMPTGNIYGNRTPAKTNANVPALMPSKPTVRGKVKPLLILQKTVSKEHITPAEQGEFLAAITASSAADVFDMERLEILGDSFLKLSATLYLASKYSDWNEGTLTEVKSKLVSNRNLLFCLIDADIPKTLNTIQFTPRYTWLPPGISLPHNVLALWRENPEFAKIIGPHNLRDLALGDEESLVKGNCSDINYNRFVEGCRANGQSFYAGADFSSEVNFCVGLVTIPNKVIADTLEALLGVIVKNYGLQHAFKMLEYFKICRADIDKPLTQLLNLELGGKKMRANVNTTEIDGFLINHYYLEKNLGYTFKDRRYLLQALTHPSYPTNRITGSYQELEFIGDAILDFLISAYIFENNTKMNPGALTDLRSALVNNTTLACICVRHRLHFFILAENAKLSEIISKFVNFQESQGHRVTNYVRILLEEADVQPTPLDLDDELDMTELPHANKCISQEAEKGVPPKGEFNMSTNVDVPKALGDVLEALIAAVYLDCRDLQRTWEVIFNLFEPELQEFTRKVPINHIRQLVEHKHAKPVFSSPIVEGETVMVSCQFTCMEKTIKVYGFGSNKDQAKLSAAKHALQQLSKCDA

Results are given in words; binding and its absence hold for the method and conditions named. Binding seen in cells or lysates may run through a third protein. These calls come from enrichment with a bait or labelling near it, and not all partners need be listed. A no says only that the protein was not detected with the bait.

In the assay the target is Flag-Blanks (knock-in, copper-inducible mtnDE promoter) (Drosophila (endogenous locus in S2 cells)) (UniProt Q9VRL8). Nature of the assay: affinity purification with mass spectrometry; Flag-Blanks immunoprecipitations from extracts of the Flag-Blanks knock-in cell line; details in the supplementary information.
Ran (from UniProt Q9VZ23 1-216): the binding entry is given as “binds”.
With “Dcr-2 (from UniProt A1ZAW0 1-1722) (enzyme)”, the binding entry is reported as “no binding”.
Turning to B1, the binding entry is reported as “binds”.
For the molecule B2, the binding result is “binds”.

These data come from publication PMC7144943.
